Primary screen of a compound library

Chains of the proteins cited; added tags and fusions are not shown. Residues count along the entry.
UniProt Q8IDJ8, 1-583: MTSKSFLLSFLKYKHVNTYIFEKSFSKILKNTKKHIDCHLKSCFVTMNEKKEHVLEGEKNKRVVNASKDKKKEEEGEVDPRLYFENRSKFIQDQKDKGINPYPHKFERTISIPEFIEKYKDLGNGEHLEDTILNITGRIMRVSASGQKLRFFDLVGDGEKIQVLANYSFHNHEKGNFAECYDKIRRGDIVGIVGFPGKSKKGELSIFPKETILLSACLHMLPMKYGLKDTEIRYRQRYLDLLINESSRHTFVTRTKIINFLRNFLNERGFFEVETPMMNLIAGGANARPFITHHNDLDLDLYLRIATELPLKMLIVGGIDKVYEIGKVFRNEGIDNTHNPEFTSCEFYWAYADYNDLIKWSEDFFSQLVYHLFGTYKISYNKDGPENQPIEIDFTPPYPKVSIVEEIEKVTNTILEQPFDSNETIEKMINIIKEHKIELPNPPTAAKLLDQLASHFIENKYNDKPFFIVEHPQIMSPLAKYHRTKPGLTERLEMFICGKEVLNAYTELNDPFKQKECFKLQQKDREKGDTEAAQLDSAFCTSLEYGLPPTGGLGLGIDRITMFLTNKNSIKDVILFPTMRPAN
UniProt P9WPC5, whole entry: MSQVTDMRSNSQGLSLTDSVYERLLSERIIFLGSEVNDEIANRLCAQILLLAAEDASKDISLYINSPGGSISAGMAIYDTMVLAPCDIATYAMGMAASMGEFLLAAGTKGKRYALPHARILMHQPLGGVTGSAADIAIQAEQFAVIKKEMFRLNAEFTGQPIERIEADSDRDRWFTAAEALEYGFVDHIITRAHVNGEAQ
UniProt P9WPC3, whole entry partner: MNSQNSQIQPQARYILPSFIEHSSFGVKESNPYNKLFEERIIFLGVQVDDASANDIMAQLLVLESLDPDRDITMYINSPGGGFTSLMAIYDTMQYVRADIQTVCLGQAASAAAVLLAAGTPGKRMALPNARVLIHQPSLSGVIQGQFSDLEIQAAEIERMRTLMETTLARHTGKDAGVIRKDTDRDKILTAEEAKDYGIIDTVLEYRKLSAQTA
UniProt P9WFT3, whole entry: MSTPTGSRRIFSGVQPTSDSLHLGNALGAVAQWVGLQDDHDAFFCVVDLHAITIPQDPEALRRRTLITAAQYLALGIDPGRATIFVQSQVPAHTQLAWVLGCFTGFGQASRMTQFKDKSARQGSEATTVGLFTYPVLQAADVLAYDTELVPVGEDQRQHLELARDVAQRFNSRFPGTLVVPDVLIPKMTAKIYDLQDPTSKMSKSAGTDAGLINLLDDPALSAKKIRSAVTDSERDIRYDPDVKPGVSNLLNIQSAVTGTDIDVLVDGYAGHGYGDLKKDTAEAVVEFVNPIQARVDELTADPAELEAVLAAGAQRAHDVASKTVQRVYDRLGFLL

From ChEMBL document CHEMBL3988442, “University of Dundee, Small-Polar-MMV Screening Library” (2021).

PfKRS1: 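Enzyme assay of the cytosolic lysyl-tRNA synthetase in 384-well plates, read by luminescence. Target: Lysine-tRNA ligase, Plasmodium falciparum 3D7 (UniProt Q8IDJ8). Tested at 30 µM. Higher reads as stronger inhibition, judged from the few compounds that gave an IC50. Of about 69,000 compounds tested this way, about 49 (0.071%) reached 50% or more in at least one test.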
ClpP1P2: 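ClpP1P2, Mycobacterium tuberculosis (UniProt P9WPC5 and UniProt P9WPC3). Protease assay of ClpP1P2, read by the AMC dye that it sets free. Compounds at 50 µM. Higher reads as stronger inhibition, judged from the few compounds that gave an IC50. Most other retested compounds had strongly negative values. About 69,000 compounds were tested under these conditions; 0.015% (about 10) showed 50% or more at least once.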
MtTrpRS: 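Enzyme assay of tryptophanyl-tRNA synthetase; the read-out is not stated. Target: Tryptophan-tRNA ligase, Mycobacterium tuberculosis (UniProt P9WFT3). Concentration: 10 µM. Higher most likely means stronger inhibition; the record gives no direction and few retests gave an IC50. About 65,000 compounds were tested under these conditions; 0.098% (about 64) showed 50% or more at least once.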

Results are given as percent effect.
The record does not define 0% and 100%; most values in the screen are far below 50% and negative numbers occur (in some assays of this library far below -100).
The compounds are a random part of those screened.

CC(C)CCNc1c(C#N)c2c(c3nncn13)CN(C)CC2 gave PfKRS1: 3.102%; ClpP1P2: -0.1599%; MtTrpRS: 4.84%. COc1cc(N2CCC3(CCN(Cc4cccnc4)C3=O)C2)ncn1 (stereo not drawn) gave PfKRS1: 6.02%; ClpP1P2: -14.57%. Result for O=C(Cc1cccc(F)c1)NCCNc1ncccn1 was PfKRS1: 0%; ClpP1P2: -9.413%; MtTrpRS: -0.1768%. For Cc1cc(CNc2ccnn2C)ccc1-n1cncn1 the result was PfKRS1: 6.177%; ClpP1P2: -2.863%; MtTrpRS: 1.21%. Result for Cc1c(Cl)cccc1S(=O)(=O)N1CCC(S(=O)(=O)c2nncn2C)CC1 was PfKRS1: 0.35%; ClpP1P2: -12.1%; MtTrpRS: 0.1961%. CCN1CCOC(CNCc2ccc(C)s2)C1 (stereo not drawn) read PfKRS1: 0.389%; ClpP1P2: 4.065%; MtTrpRS: 1.322%. For Cc1cc(C(=O)N2CCCC(C)C2)ccc1NCC(=O)N1CCOCC1 (stereo not drawn) the result was PfKRS1: -0.1936%; ClpP1P2: -4.781%; MtTrpRS: -4.206%.

CCN(Cc1noc(C)n1)C(=O)CC1C(=O)NCCN1CC(C)(C)C (stereo not drawn) gave PfKRS1: 1.236%; ClpP1P2: 6.694%; MtTrpRS: -0.2513%. For CNc1nc(CNC(=O)Nc2cccc(-c3nnco3)c2)cs1 the result was PfKRS1: 5.605%; ClpP1P2: 4.506%; MtTrpRS: -2.43%. Result for CCOC(=O)N1CCCC2(CCN(Cc3ccccc3C#N)C2)C1 (stereo not drawn) was PfKRS1: 2.197%; ClpP1P2: -9.028%; MtTrpRS: 3.051%. Result for NC(=O)N1CC2(CCNCC2)c2cc(Cl)ccc21 was PfKRS1: 4.794%; ClpP1P2: 0.9224%; MtTrpRS: -2.824%. O=C(NCc1ccccn1)[C@]12COC[C@H]1CN(Cc1cccnc1)C2 read PfKRS1: 0.8334%; ClpP1P2: -13.79%; MtTrpRS: -3.902%. Result for O=C(c1ccc2c(c1)CCCC2)N1CCCC(n2cncn2)C1 (stereo not drawn) was PfKRS1: 15.24%; ClpP1P2: -21.88%; MtTrpRS: -2.274%. For CCc1cnc(N2CCN(Cc3ccncc3)CC2)s1 the result was PfKRS1: 2.536%; ClpP1P2: -2.044%; MtTrpRS: -4.137%.

For CN(C)CCn1ccnc1C1CCCN(c2nccc3ccccc23)C1 (stereo not drawn) the result was PfKRS1: 3.868%; ClpP1P2: -28.35%; MtTrpRS: -3.329%. Result for CCOCC(O)CN1CCN(C(=O)c2cccnc2OC)CC1 (stereo not drawn) was PfKRS1: 2.724%; ClpP1P2: -8.025%; MtTrpRS: -2.158%. For Cc1nonc1C(=O)N1CC[C@@]2(O)CCN(C3CCCCC3)C[C@H]2C1 the result was PfKRS1: 1.697%; ClpP1P2: -6.304%; MtTrpRS: -1.444%. c1cc(COC[C@@]23CCC[C@@H]2CN(C2CCOCC2)C3)ccn1 read PfKRS1: 3.228%; ClpP1P2: -4.769%. Result for Cc1ccc(-c2nc(CN3CCCCC3Cn3cncn3)no2)cc1 (stereo not drawn) was PfKRS1: 2.913%; ClpP1P2: -4.631%; MtTrpRS: -6.134%. CCn1nc(C)c(C(=O)N2C[C@@H](CN(C)CCOC)[C@@H](CO)C2)c1C read PfKRS1: 2.973%; ClpP1P2: 20.28%; MtTrpRS: 1.514%. CN1CCN([C@@H]2CCN(Cc3ccc4cc(F)ccc4n3)C[C@H]2O)CC1 gave PfKRS1: -0.1811%; ClpP1P2: 5.939%; MtTrpRS: -1.104%.

2 of the entries, repeated:

Compound,PfKRS1,ClpP1P2,MtTrpRS
CCOCC(O)CN1CCN(C(=O)c2cccnc2OC)CC1 (stereo not drawn),2.724,-8.025,-2.158
O=C(c1ccc2c(c1)CCCC2)N1CCCC(n2cncn2)C1 (stereo not drawn),15.24,-21.88,-2.274